Data from the primary screen of doi:10.1371/journal.pone.0140310, rounded.

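The test systems are human melanoma cell lines, treated with two drugs together for 72 h and then stained and imaged. Values are the share of nuclei positive for cleaved PARP as a percentage of the same share in the DMSO control: 100 is the control level, higher means more apoptosis. Every drug was used at one fixed concentration, the higher of two screened. No replicate spread is given; individual values may be noisy. The marker varies much from line to line, for technical or biological reasons.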 Only some of the drugs and lines screened are listed, without regard to their results. A dash means that no value is listed here.

Every entry is a combination with IMD-0354 at 0.08 µM: O=C(Nc1cc(C(F)(F)F)cc(C(F)(F)F)c1)c1cc(Cl)ccc1O

Partner,RVH-421,UACC-62,WM1716,C32,UACC-257,LOX IMVI,WM1745,WM3619,A101D,SK-MEL-2,A375,G-361,SK-MEL-30,IPC-298,MZ2-MEL
C[C@]1(O)C[C@@H](c2nc(-c3ccc4ccc(-c5ccccc5)nc4c3)c3c(N)nccn32)C1 at 2 µM,95.3,229,70.6,13.1,126,146,96.5,81.9,72.2,173,32.6,113,124,56.0,151
CNC(=O)c1cc(Oc2ccc(NC(=O)Nc3ccc(Cl)c(C(F)(F)F)c3)cc2)ccn1 at 2 µM,217,79.2,93.9,115,45.4,41.4,95.6,102,81.3,135,80.8,161,136,37.3,84.5
Nc1ccn([C@@H]2O[C@H](CO)[C@@H](O)C2(F)F)c(=O)n1 at 0.002 µM,311,71.1,92.2,59.2,73.7,81.0,171,202,78.3,120,130,197,99.2,217,-
O=C(O)C(=O)Nc1sc2c(c1C(=O)O)CCNC2 at 8.33 µM,107,58.3,90.0,81.3,66.5,94.5,-,79.1,34.4,37.8,44.4,23.6,47.0,244,34.6
CCN(CC)CCCCNc1ncc2cc(-c3cc(OC)cc(OC)c3)c(NC(=O)NC(C)(C)C)nc2n1 at 0.5 µM,65.5,147,76.6,451,28.2,172,-,166,152,90.2,52.5,134,72.0,81.6,157
C/C(O)=C(\C#N)C(=O)Nc1cc(Br)ccc1Br at 10 µM,60.7,105,77.6,90.2,44.1,30.7,-,102,118,57.9,109,121,105,76.8,74.6
C=CCNC1=C2C[C@@H](C)C[C@H](OC)[C@H](O)[C@@H](C)/C=C(\C)[C@H](OC(N)=O)[C@@H](OC)/C=C\C=C(/C)C(=O)NC(=CC1=O)C2=O at 0.01 µM,439,247,105,822,78.8,176,157,205,45.3,184,97.7,74.9,131,48.2,39.3
CC(C)C[C@H](NC(=O)[C@H](Cc1ccccc1)NC(=O)c1cnccn1)B(O)O at 0.005 µM,263,228,16200,1120,98.3,343,396,2250,1130,311,133,10500,1410,3440,20800
NC(=O)c1ccc(N(C(N)=O)c2c(F)cccc2F)nc1-c1ccc(F)cc1F at 2 µM,64.5,156,16.7,36.5,23.0,73.5,150,96.5,56.4,103,15.5,113,58.8,103,117
NCC(=O)Nc1ccc(-n2nc(C(F)(F)F)cc2-c2ccc3c(ccc4ccccc43)c2)cc1 at 5 µM,200,141,74.9,137,44.2,68.4,94.2,147,190,387,-,237,548,220,143
CCN(CC)CCNC(=O)c1c(C)[nH]c(/C=C2\C(=O)Nc3ccc(F)cc32)c1C at 2 µM,134,125,53.0,31.6,44.8,33.4,187,189,102,163,114,88.9,134,346,117
O=C(/C=C/c1cccnc1)NCCCCC1CCN(C(=O)c2ccccc2)CC1 at 0.05 µM,389,122,50.6,62.1,38.4,35.4,83.8,120,176,2630,40.4,5750,54.6,234,522
CC(=O)O[C@@]12CO[C@@H]1C[C@H](O)[C@@]1(C)C(=O)[C@H](O)C3=C(C)[C@@H](OC(=O)[C@H](O)[C@@H](NC(=O)OC(C)(C)C)c4ccccc4)C[C@@](O)([C@@H](OC(=O)c4ccccc4)[C@H]21)C3(C)C at 0.0005 µM,329,254,726,296,127,66.8,475,173,67.1,928,80.7,1450,552,516,-
COc1cc(N2CCC(N3CCN(C)CC3)CC2)ccc1Nc1ncc(Cl)c(Nc2ccccc2S(=O)(=O)C(C)C)n1 at 0.4 µM,136,338,163,95.7,142,107,-,116,229,53.4,116,85.2,98.5,40.9,94.2
Cn1cnc2c(F)c(Nc3ccc(Br)cc3Cl)c(C(=O)NOCCO)cc21 at 0.075 µM,144,337,226,128,84.0,47.2,125,115,114,216,121,93.4,216,116,200
O=c1[nH]nc(Sc2ncc([N+](=O)[O-])s2)n1-c1ccc2c(c1)OCCO2 at 1 µM,136,58.8,72.9,273,58.7,122,113,108,75.6,113,245,120,246,56.0,55.6
Cn1cc(/C=C2\C(=O)Nc3cccnc32)c2ccccc21 at 2 µM,87.3,72.9,71.0,62.6,31.0,65.0,-,100,20.0,90.8,39.1,95.8,95.5,188,-
CCCS(=O)(=O)Nc1ccc(F)c(C(=O)c2c[nH]c3ncc(Cl)cc23)c1F at 0.4 µM,33.6,373,361,198,23.5,102,102,118,79.0,77.5,67.3,289,291,104,153
CN(c1ncccc1CNc1nc(Nc2ccc3c(c2)CC(=O)N3)ncc1C(F)(F)F)S(C)(=O)=O at 0.4 µM,80.5,288,138,105,91.3,197,127,99.8,159,240,182,181,134,34.4,123
CC(C)CCN1c2nc(Nc3cc(F)c(O)c(F)c3)ncc2N(C)C(=O)C1C (centres unmarked) at 1 µM,134,132,50.9,77.2,77.5,167,-,92.1,95.0,81.8,177,162,118,172,146
C[C@@H](Oc1cc(-c2cnn(C3CCNCC3)c2)cnc1N)c1c(Cl)ccc(F)c1Cl at 1 µM,68.9,158,136,73.1,34.0,44.7,95.3,81.2,59.6,110,75.0,79.2,197,206,38.4
CN(NC(=O)CC(=O)NN(C)C(=S)c1ccccc1)C(=S)c1ccccc1 at 0.03 µM,32.0,93.1,58.3,4220,34.8,28.8,214,2080,65.1,48.2,-,276,83.1,104,100
O=C(O)c1ccc2c(c1)nc(Nc1cccc(Cl)c1)c1ccncc12 at 2 µM,29.4,245,57.6,65.8,31.8,60.0,102,99.4,59.2,94.7,112,126,59.6,123,132
CC1(C)CCC(c2ccc(Cl)cc2)=C(CN2CCN(c3ccc(C(=O)NS(=O)(=O)c4ccc(N[C@H](CCN5CCOCC5)CSc5ccccc5)c(S(=O)(=O)C(F)(F)F)c4)cc3)CC2)C1 at 2 µM,86.9,262,1880,231,2080,189,2530,96.5,56.8,162,248,386,327,262,355
Cc1nc(Nc2ncc(C(=O)Nc3c(C)cccc3Cl)s2)cc(N2CCN(CCO)CC2)n1 at 0.02 µM,150,184,195,359,206,107,212,124,89.0,218,131,43.5,212,134,160
Cc1ccc(Nc2nccc(N(C)c3ccc4c(C)n(C)nc4c3)n2)cc1S(N)(=O)=O at 2 µM,153,113,65.5,90.0,163,59.4,112,78.0,69.2,74.8,65.0,72.7,110,62.3,61.0
C#Cc1cccc(Nc2ncnc3cc(OCCOC)c(OCCOC)cc23)c1 at 4 µM,640,261,79.8,46.6,33.2,101,152,132,104,108,51.5,210,43.4,61.4,65.0
COc1ccc2c(c1)CCC1C2CCC2(C)C(NCCCCCCN3C(=O)C=CC3=O)CCC12 (centres unmarked) at 2 µM,50.1,77.1,59.2,79.8,55.4,53.0,-,105,144,31.6,43.6,25.8,87.9,71.0,-
N.N.[Cl][Pt][Cl] at 8 µM,136,65.7,158,51.8,586,190,106,80.4,75.4,82.0,354,149,176,154,85.8
CN1CCN(c2ccc3nc(-c4c(N)c5c(F)cccc5[nH]c4=O)[nH]c3c2)CC1 at 0.5 µM,66.5,150,197,87.4,65.3,103,142,123,116,244,159,82.5,95.9,307,285
Cc1ccc(NC(=O)c2cccc(N(C)C)c2)cc1NC(=O)c1ccc(O)cc1 at 10 µM,46.9,103,140,278,136,99.4,94.5,76.7,140,41.4,-,121,63.4,84.4,249
C[As](C)SC[C@H](NC(=O)CC[C@H](N)C(=O)O)C(=O)NCC(=O)O at 2 µM,39.4,169,59.1,248,58.7,53.6,92.9,132,72.2,162,111,136,82.4,107,70.1
CS(=O)(=O)c1ccc(C(=O)Nc2ccc(Cl)c(-c3ccccn3)c2)c(Cl)c1 at 5 µM,171,180,85.7,78.2,25.4,41.8,71.7,98.0,155,115,74.4,68.0,54.4,74.6,48.5
Clc1ccc(Nc2nnc(Cc3ccncc3)c3ccccc23)cc1 at 10 µM,169,178,86.1,141,96.6,104,391,159,354,196,75.5,158,147,65.9,112
c1cc(-c2cnn3cc(-c4ccc(OCCN5CCCCC5)cc4)cnc23)ccn1 at 2 µM,87.3,121,32.5,122,27.3,82.4,-,95.3,32.3,49.9,82.3,102,88.2,40.3,110
COc1cc(Nc2ncc(F)c(Nc3ccc4c(n3)NC(=O)C(C)(C)O4)n2)cc(OC)c1OC at 2 µM,42.0,134,203,180,42.5,88.0,524,176,204,64.2,-,197,158,183,104

The first 4 entries again:

| Partner | RVH-421 | UACC-62 | WM1716 | C32 | UACC-257 | LOX IMVI | WM1745 | WM3619 | A101D | SK-MEL-2 | A375 | G-361 | SK-MEL-30 | IPC-298 | MZ2-MEL |
|---|---|---|---|---|---|---|---|---|---|---|---|---|---|---|---|
| C[C@]1(O)C[C@@H](c2nc(-c3ccc4ccc(-c5ccccc5)nc4c3)c3c(N)nccn32)C1 at 2 µM | 95.3 | 229 | 70.6 | 13.1 | 126 | 146 | 96.5 | 81.9 | 72.2 | 173 | 32.6 | 113 | 124 | 56.0 | 151 |
| CNC(=O)c1cc(Oc2ccc(NC(=O)Nc3ccc(Cl)c(C(F)(F)F)c3)cc2)ccn1 at 2 µM | 217 | 79.2 | 93.9 | 115 | 45.4 | 41.4 | 95.6 | 102 | 81.3 | 135 | 80.8 | 161 | 136 | 37.3 | 84.5 |
| Nc1ccn([C@@H]2O[C@H](CO)[C@@H](O)C2(F)F)c(=O)n1 at 0.002 µM | 311 | 71.1 | 92.2 | 59.2 | 73.7 | 81.0 | 171 | 202 | 78.3 | 120 | 130 | 197 | 99.2 | 217 | - |
| O=C(O)C(=O)Nc1sc2c(c1C(=O)O)CCNC2 at 8.33 µM | 107 | 58.3 | 90.0 | 81.3 | 66.5 | 94.5 | - | 79.1 | 34.4 | 37.8 | 44.4 | 23.6 | 47.0 | 244 | 34.6 |